The values below come from PubChem BioAssay AID1347423 (Functional Genomics Laboratory (NCATS/FGL), 2020).

Screen size: about 52,000 sequences; about 210 (0.4%) were called active.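 The calls were made as follows: active = gene whose silencing raises cell survival under the drug, median off-target-corrected z-score across its silencing RNAs 2 or more; inactive = the rest.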 The list shows a part of the results.

The nature of the test: Resistance to Poly (ADP-Ribose) Polymerase inhibitor: Gene Identification via Genome-wide siRNA Screen. As to conditions: mouse BRCA2 R2336H ES cells, olaparib, CellTiter-Glo viability; hits give high values. In a few lines:
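Mouse BRCA2 R2336H ES cells were reverse-transfected with siRNA (20 nM final), treated at 48 h with 500 nM olaparib, and read by CellTiter-Glo after 72 h. Scores: MAD-based z per siRNA, median per gene, seed off-target correction.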
A general note: ATP-based viability assays read luminescence as a measure of living cells.
Regarding GGAGCUAAAGCUGCUGAUUTT against Calb3, the z-score was inactive: 0.983.

For the sequence CGGGCACUUAAGUUUCCAGTT against Nfix, the z-score was inactive: -0.278.

As to GGUCAGAGGGCGAAUUAAATT against Akap4, the z-score is inactive: -0.234.

In the case of GGAAAUGGUUCUAACAAAATT against Cpa5, the z-score was inactive: 1.02.

Consider GCCAGUAUGCAAAGACUCATT against LOC214403, for which the z-score was inactive: -0.585.

With GGGAUAUUGAGGAAGGUAUTT against Eda2r, the z-score was inactive: 0.0137.

In the case of GGAAGAUGACCUCUACAUCTT against Aldh3a1, the z-score is inactive: -0.611.

Take GCAUAAUUCUUUCUUCGCATT against Krtap14: the z-score was inactive: 1.98.

With GGUUUCAAAUAAAAAGGCATT against Lrpb7, the z-score was inactive: 0.965.

Take GCCACGAAGGUACUAUGUATT against Tbce: the z-score is inactive: -0.275.

Consider “GGUUUCGUUGUUCUUGUUGTT against 2900001O04Rik”, for which the z-score is inactive: 0.407.

Turning to GGUAGAAUACCUUCAGAUUTT against Ercc4, the z-score was inactive: 0.198.

In the case of “CCGGGUAGUCUUUUUGGUGTT against 9130019O22Rik”, the z-score is inactive: 0.976.

As for GCCGUUAGAAACAAAGUCGTT against Taf3, the z-score is inactive: -0.374.

As to GGCGGAGUAGACUUCAUAUTT against Olfr593, the z-score is inactive: -2.45.

Regarding “CCCUCUGAAAAUGACCACUTT against 5430420C16Rik”, the z-score was inactive: 0.931.

Regarding GGUAUUGAAAAGGUGAAGUTT against Lpp, the z-score was inactive: 0.172.

GGGACUUGAAGAUAAUCAATT against Dnajc10: the z-score was inactive: -0.383.

On to GCGGAUGCAAAUCGAUGAATT against BC062951, for which the z-score is inactive: 1.12.

As for CCUCUCCUUACAACUGAUGTT against Zfp286, the z-score is inactive: -0.203.

GGAGAAAGGAAAACUCUUUTT against Pcdhga8: the z-score is inactive: -1.19.

Take GCCUGUCUGCCACUUACAATT against Siat8c: the z-score was inactive: 0.0785.

On to GGAAAAGGGUCGUGCCUGUTT against LOC433332, for which the z-score is inactive: 0.298.

For CCCGGUUGAGAAGAUAGACTT against Sod3, the z-score is inactive: 0.529.

On to CCUCCAGGCUAUUUAUAGUTT against Unc119, for which the z-score was inactive: 0.923.

GGAUGUGGAAGCAGUUUGUTT against Zfp101: the z-score is inactive: -1.78.

As to CCUAAAUCUCACCUCCACATT against Gp9, the z-score is inactive: 0.412.

For GGGAAUGUGUUCUUUAUCATT against Commd9, the z-score was inactive: -0.123.

In the case of GGCAUCUUAAAAUUGACUGTT against Olfr701, the z-score was inactive: 0.126.

As for CGCAACCAUCAUCGUGCUCTT against Olfr282, the z-score is inactive: -1.49.

Turning to “GCUAACUGAUACUCCACCATT against 2810006K23Rik”, the z-score was inactive: -2.24.

With GGCACUUGCUUUGGAUAAATT against Serpinb6a, the z-score is inactive: -1.85.

Take GGAUUUCUCGGAAGUCGAGTT against Cd3e: the z-score was inactive: -1.24.

Turning to GGAAGAAGUCAAACCAUAUTT against Ccl25, the z-score is inactive: 1.32.

CCUCCAGGAUUAUCGUGAUTT against Dnajc6: the z-score is inactive: -0.338.

As for GCAAAACGUAGCAGAAUUGTT against Magee1, the z-score was inactive: 0.824.

“GGCAAGAGGAAAAAGCGGATT against 4921503C21Rik”: the z-score is inactive: -1.49.

Regarding CCUGAACCACUUGUUAAAUTT against Rnf10, the z-score is inactive: 0.959.

Take UCUUACACUUCGUGUUCCATT against Gpr6: the z-score was inactive: -0.002.

In the case of GGAUUUGUGAAGUUUUUUGTT against Psmd5, the z-score was inactive: 0.532.

For the sequence CCUGAAUUACAGGGACCAGTT against Znrd1, the z-score is inactive: 1.74.

For the sequence CGUGAUAGUAGUGAAGUGATT against Usp22, the z-score is inactive: -1.32.

As to GCCUAUCCCGAUGUUGUUGTT against Ap3m1, the z-score is inactive: 0.464.

Take GACUCUUGUCCCAAGUGUUTT against Cno: the z-score was inactive: -0.118.

For CCGACUAAUGCCAUCUUCATT against Pcbp2, the z-score is inactive: -1.16.

As for GGAAGAUCGAGAAUGUUCCTT against Ppih, the z-score is inactive: 0.544.

Turning to GGCAGAAUAUGAGUUUGAUTT against Camk1d, the z-score is inactive: 1.28.

In the case of “GAUGCAGCCGUAGGAAUGGTT against Defcr-rs10”, the z-score was inactive: -0.855.

With GGAAUUUGACCUUACUACUTT against AA960436, the z-score is inactive: -0.0817.

With CCUCAUAACAACGACUCCUTT against Blr1, the z-score is inactive: -0.86.

As for GGCACUUUUUGUUUUCAUGTT against Nckap1, the z-score is inactive: -0.724.

Turning to CCUGAUUGUCACUCCUUUUTT against Pde4b, the z-score was inactive: -0.239.

As for CGUUUGCUUUUCAUCGUGGTT against Olfr154, the z-score was inactive: 1.56.

For GCAGGCUACCUCUAAUCCATT against Slc23a3, the z-score is inactive: -0.866.

For the sequence GGAGGAGAUAAAAUUUAACTT against Cdv1, the z-score is inactive: 0.488.

With “GGCGGACAGUUCUUUGCAATT against A630029G22Rik”, the z-score is inactive: -0.194.

Take GGUUUUAUUAACUCUGUGATT against Olfr1013: the z-score is inactive: -0.0811.

For UAUGCUGGCAGGGACACCUTT against Scarf1, the z-score was inactive: -0.366.

Regarding GCAUAGAUUCUCGAGUUUATT against Sugt1, the z-score was inactive: 0.676.

Take GGAGGUCCAAGUAGCUCUUTT against Olfr5: the z-score is inactive: -0.488.

Take “GGAAAUUUCAGUCGUAGUATT against 9130411I17Rik”: the z-score was inactive: 0.0964.

With GGUCUUCAAGGCACAUAAGTT against Btbd4, the z-score is inactive: -0.643.

For the sequence GCUGACUUCGGAGAUUAUATT against Ptpn14, the z-score was inactive: -0.14.

Consider CCUCUGUUUGCACUUAUUATT against Gabrr1, for which the z-score is inactive: -0.402.

On to GGUUAUCGCCCAAUGACGGTT against Dmrt2, for which the z-score is inactive: 0.179.

In the case of “GGUAUUUCCACUGUCCAGCTT against 2900075G08Rik”, the z-score is inactive: 0.824.

Regarding GGACAAUUUAACCAUCGUGTT against Tm4sf9, the z-score was inactive: 0.348.

Regarding “GCUAAUCCCAUCUCGUCCUTT against 3110009E18Rik”, the z-score was inactive: 0.972.

Take GGUGUCCUCCUUUCAGUUUTT against Tas2r114: the z-score was inactive: -1.05.

For GGCAAAGCUAAAGGCCAAATT against Ensa, the z-score is inactive: -0.494.

Turning to “GGAAAAUGAUGGAGAGGAATT against 2610022K04Rik”, the z-score is inactive: 0.374.

For GCGAGUACUUUCCGCUGUUTT against Ltc4s, the z-score was inactive: 0.215.

In the case of GGAAUUUGUCCAGAGUCACTT against Treh, the z-score is inactive: 0.581.

As to CCAGACCACUUCCCAUUCUTT against Aqr, the z-score was inactive: -2.15.

As to “GGCCUAGCAAUUCUUGAGCTT against C630025C03”, the z-score was inactive: -0.00738.

Consider CGAUUUAGUGGAACAAAUGTT against Nln, for which the z-score is inactive: -0.624.

Regarding GGAACGACCAAAAGUGACGTT against Emcn, the z-score was inactive: -1.06.

Regarding “GGUCCAAAGAAAGACCCAUTT against 1700009B20Rik”, the z-score is inactive: -0.191.

In the case of “CCCAUCUGAUUGUGCACAUTT against 2310061F22Rik”, the z-score is inactive: -0.485.

As for GGUGACAAACCGAUACUUGTT against Cope, the z-score is inactive: -0.601.

As to GCUAUGACUUCAACGACUATT against Pcsk4, the z-score was inactive: 1.22.

As to GGAAGAAUGGGCUUUCUAGTT against Pask, the z-score is inactive: 0.69.

With “GGCUUGUCAGAAUUCUUCUTT against 4921528I01Rik”, the z-score was inactive: 1.27.

GCUUUAAUGUUGACCUAGUTT against Lgals8: the z-score is inactive: -0.889.

Consider “CCUUUUGAUGUUGUGACUUTT against B230205M03”, for which the z-score was inactive: -1.47.

GAGACUCUAUUUGAGGAUUTT against Kb14: the z-score was inactive: 0.851.

On to CCUCAAGGCUCAUAAAACATT against Zfp598, for which the z-score was inactive: 1.02.

On to GCACAAAAAAGUGAUAUUGTT against Hdlbp, for which the z-score was inactive: -0.853.

As to CUCUGGUUCCUAUUAGUAGTT against V1rd21, the z-score was inactive: -1.31.

Consider GCAACUGGACAUUUAACAATT against Epgn, for which the z-score is inactive: 0.218.

Turning to GCUCUAUAGGCGAGCAUAGTT against BC049711, the z-score was inactive: -0.275.

Take GCAAGCUCAAAGCUUACGATT against Kcnv2: the z-score was inactive: 1.19.

Turning to GGUCCUGUGCUCUACUUUGTT against Gng10, the z-score was inactive: -1.52.

Take GGAAAUCGGCAAUCUGAAGTT against Lrrc1: the z-score is inactive: -0.495.

Regarding “CGAUCUACAUCGAAUAAAUTT against 2610304F09Rik”, the z-score is inactive: -1.08.

As to GGACACUGGGCUUAGCACUTT against Krt1-1, the z-score is inactive: 1.76.

In the case of GGAAGAAUUGGGUGUAGUGTT against L1cam, the z-score is inactive: 1.45.

For GGGAUUAGAGACUGUCAUUTT against Nudt9, the z-score is inactive: -0.936.

GCCCAACUAAGCAAUAAUATT against AU021034: the z-score is inactive: 0.416.

Turning to “GCCCUUCAGUAUUGACCUGTT against 3010001K23Rik”, the z-score is inactive: -0.261.

As to GGAAGAGGCUAUUGCAUCGTT against Atrnl, the z-score is inactive: 0.238.

On to CCUUAGACCCAAUAACUUUTT against Nrxn1, for which the z-score was inactive: 1.36.

Take GGACGAUGAGAGCAAUGACTT against Klk11: the z-score is inactive: -1.22.

As for “GGCUCUCUUCGGGAAUACUTT against 2510006D16Rik”, the z-score was inactive: 0.0164.
